{
  "source": "patent US20250283871A1",
  "about": "“COMPOSITIONS AND METHODS FOR MODULATING THE INTERACTION BETWEEN SS18-SSX FUSION ONCOPROTEIN AND NUCLEOSOMES” (Dana-Farber Cancer Institute, Inc., priority 2020, published 2025)",
  "molecules": {"B1": {"name": "USP30 (protein, UniProt Q70CQ3 1-517, looked up)", "Ubiquitin carboxyl-terminal …": "MLSSRAEAAMTAADRAIQRFLRTGAAVRYKVMKNWGVIGGIAAALAAGIYVIWGPITERKKRRKGLVPGLVNLGNTCFMNSLLQGLSACPAFIRWLEEFTSQYSRDQKEPPSHQYLSLTLLHLLKALSCQEVTDDEVLDASCLLDVLRMYRWQISSFEEQDAHELFHVITSSLEDERDRQPRVTHLFDVHSLEQQSEITPKQITCRTRGSPHPTSNHWKSQHPFHGRLTSNMVCKHCEHQSPVRFDTFDSLSLSIPAATWGHPLTLDHCLHHFISSESVRDVVCDNCTKIEAKGTLNGEKVEHQRTTFVKQLKLGKLPQCLCIHLQRLSWSSHGTPLKRHEHVQFNEFLMMDIYKYHLLGHKPSQHNPKLNKNPGPTLELQDGPGAPTPVLNQPGAPKTQIFMNGACSPSLLPTLSAPMPFPLPVVPDYSSSTYLFRLMAVVVHHGDMHSGHFVTYRRSPPSARNPLSTSNQWLWVSDDTVRKASLQEVLSSSAYLLFYERVLSRMQHQSQECKSEE"}, "B2": {"name": "NUBPL (protein, UniProt Q8TB37 39-319, looked up)", "Iron-sulfur cluster transfer …": "GAGSETLKQRRTQIMSRGLPKQKPIEGVKQVIVVASGKGGVGKSTTAVNLALALAANDSSKAIGLLDVDVYGPSVPKMMNLKGNPELSQSNLMRPLLNYGIACMSMGFLVEESEPVVWRGLMVMSAIEKLLRQVDWGQLDYLVVDMPPGTGDVQLSVSQNIPITGAVIVSTPQDIALMDAHKGAEMFRRVHVPVLGLVQNMSVFQCPKCKHKTHIFGADGARKLAQTLGLEVLGDIPLHLNIREASDTGQPIVFSQPESDEAKAYLRIAVEVVRRLPSPSE"}, "B3": {"name": "EARS2 (protein, UniProt Q5JPH6 42-523, looked up)", "Nondiscriminating …": "APSPTGFLHLGGLRTALYNYIFAKKYQGSFILRLEDTDQTRVVPGAAENIEDMLEWAGIPPDESPRRGGPAGPYQQSQRLELYAQATEALLKTGAAYPCFCSPQRLELLKKEALRNHQTPRYDNRCRNMSQEQVAQKLAKDPKPAIRFRLEQVVPAFQDLVYGWNRHEVASVEGDPVIMKSDGFPTYHLACVVDDHHMGISHVLRGSEWLVSTAKHLLLYQALGWQPPHFAHLPLLLNRDGSKLSKRQGDVFLEHFAADGFLPDSLLDIITNCGSGFAENQMGRTLPELITQFNLTQVTCHSALLDLEKLPEFNRLHLQRLVSNESQRRQLVGKLQVLVEEAFGCQLQNRDVLNPVYVERILLLRQGHICRLQDLVSPVYSYLWTRPAVGRAQLDAISEKVDVIAKRVLGLLERSSMSLTQDMLNGELKKLSEGLEGTKYSNVMKLLRMALSGQQQGPPVAEMMLALGPKEVRERIQKVVSS"}, "B4": {"name": "UQCRFS1 (protein, UniProt P47985 79-274, looked up)", "Cytochrome b-c1 complex …": "SHTDIKVPDFSEYRRLEVLDSTKSSRESSEARKGFSYLVTGVTTVGVAYAAKNAVTQFVSSMSASADVLALAKIEIKLSDIPEGKNMAFKWRGKPLFVRHRTQKEIEQEAAVELSQLRDPQHDLDRVKKPEWVILIGVCTHLGCVPIANAGDFGGYYCPCHGSHYDASGRIRLGPAPLNLEVPTYEFTSDDMVIVG"}, "B5": {"name": "AGPAT5 (protein, UniProt Q9NUQ2 1-364, looked up)", "1-acyl-sn-glycerol-3-phosphate …": "MLLSLVLHTYSMRYLLPSVVLLGTAPTYVLAWGVWRLLSAFLPARFYQALDDRLYCVYQSMVLFFFENYTGVQILLYGDLPKNKENIIYLANHQSTVDWIVADILAIRQNALGHVRYVLKEGLKWLPLYGCYFAQHGGIYVKRSAKFNEKEMRNKLQSYVDAGTPMYLVIFPEGTRYNPEQTKVLSASQAFAAQRGLAVLKHVLTPRIKATHVAFDCMKNYLDAIYDVTVVYEGKDDGGQRRESPTMTEFLCKECPKIHIHIDRIDKKDVPEEQEHMRRWLHERFEIKDKMLIEFYESPDPERRKRFPGKSVNSKLSIKKTLPSMLILSGLTAGMLMTDAGRKLYVNTWIYGTLLGCLWVTIKA"}},
  "data": [
    {"system": "BAF complex subunits and histone proteins", "assay": "Mass spectrometry proteomics of purified HA-SS18 WT and HA-SS18-SSX1 complexes (Tables 5A-5E)", "parameters": "species or system human", "conditions": "HA-SS18SSX1_NE_peptides: protein co-purified with HA-SS18-SSX1 BAF complexes from soluble nuclear extract (NE), HEK-293T cells", "values": [
      {"molecule": "B1", "Total (peptides)": 2, "Unique (peptides)": 2},
      {"molecule": "B2", "Total (peptides)": 2, "Unique (peptides)": 2},
      {"molecule": "B3", "Total (peptides)": 2, "Unique (peptides)": 2},
      {"molecule": "B4", "Total (peptides)": 2, "Unique (peptides)": 2},
      {"molecule": "B5", "Total (peptides)": 2, "Unique (peptides)": 2}
    ]},
    {"system": "BAF complex subunits and histone proteins", "assay": "Mass spectrometry proteomics of purified HA-SS18 WT and HA-SS18-SSX1 complexes (Tables 5A-5E)", "parameters": "species or system human", "conditions": "HA-SS18WT_NE_peptides: HA-SS18 WT complexes purified from nuclear extract (NE), HEK-293T; label = protein identified (Gene Symbol)", "values": [
      {"molecule": "B2", "Total (peptides)": 2, "Unique (peptides)": 2},
      {"molecule": "B4", "Total (peptides)": 5, "Unique (peptides)": 5}
    ]},
    {"system": "BAF complex subunits and histone proteins", "assay": "Mass spectrometry proteomics of purified HA-SS18 WT and HA-SS18-SSX1 complexes (Tables 5A-5E)", "parameters": "species or system human", "conditions": "HA-SS18WT_NE_peptides: proteins co-purified with HA-SS18 WT from nuclear extract (NE), HEK-293T", "values": [
      {"molecule": "B3", "Total (peptides)": 1, "Unique (peptides)": 1},
      {"molecule": "B5", "Total (peptides)": 2, "Unique (peptides)": 2}
    ]}
  ]
}
